{"source": "PubChem BioAssay AID1347076", "about": "(National Center for Advancing Translational Sciences (NCATS), 2019)", "note": "Hit rate of the full screen: of about 400,000 compounds, about 13,000 (3.2%) were called active. The shares of active, inactive and inconclusive entries below differ from those in the screen. The call rests on the fitted dose curve; in most records, active means well fitted cell-killing curve with a large enough effect; inconclusive means small, poorly fitted or top-dose-only effect, or effect the other way; inactive means flat fitted curve, though single readings scatter. Where the call is inconclusive, the potency comes from a doubtful curve fit. On the % scale 0 is the no-effect control and ±100 the full control effect; potency means the concentration at half of the fitted maximal effect.", "data": [{"test": "qHTS assay for MDR1-selective chemotherapeutics: Primary screen using the drug-selected MDR subline cells KB-V1; further: nearly all actives have a fitted effect of over 60% in size", "conditions": "KB-V1 MDR cells viability, CellTiter-Glo, 72 h; activity change, negative = cytotoxicity: at 46.1 µM (top of the series)", "how_it_was_run": "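Luminescent ATP read-out (CellTiter-Glo, 10 min) measures survival of drug-selected KB-V1 MDR cells after 72 h, 37 degrees C compound exposure. Medium: phenol-red-free DMEM, 10% FBS. Values from fitted concentration-response curves.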", "values": [{"compound": "CC(=O)C[C@@H](O)CC(=O)[C@@H]1OC(=O)CCCCC/C=C/Cc2ccccc21", "activity change, negative = cytotoxicity": "inactive: -5.46%"}, {"compound": "CC1CCCN(C(=O)C(C)Sc2nc(-c3ccccc3)cc(C(F)(F)F)n2)C1", "note": "(stereo not drawn)", "Potency": "inconclusive: 16.4 µM [cytotoxic, single point]"}, {"compound": "COc1ccccc1-c1cnc2c(c1)C(=O)N([C@@H](C)CO)C[C@H](C)[C@H](CN(C)C)O2", "Potency": "inconclusive: 32.6 µM [rising, single point]"}, {"compound": "Cc1ccccc1NC(=O)c1cccc(C(=O)Nc2ccccc2C)c1", "Potency": "inconclusive: 25.9 µM [cytotoxic, single point]"}, {"compound": "CCCC(=O)Nc1nn(CCC)c2nc3ccccc3cc12", "Potency": "inconclusive: 29.1 µM [cytotoxic, single point]"}, {"compound": "CC1CC(C)CN(C(C(=O)NC2CCCCC2)c2cc3ccccc3o2)C1", "note": "(stereo not drawn)", "activity change, negative = cytotoxicity": "inactive: 0%"}, {"compound": "CC(=O)C(C(c1ccccc1)c1c[nH]c2ccccc12)[N+](=O)[O-]", "note": "(stereo not drawn)", "Potency": "inconclusive: 16.4 µM [cytotoxic, partial curve]"}, {"compound": "Cc1ccc(N2C(SCC(=O)O)=NC(=Nc3cccc(C)c3)C23CCCC3)cc1", "activity change, negative = cytotoxicity": "inactive: -9.66%"}, {"compound": "O=C(CSCc1cccc(Cl)c1)N/N=C/c1ccc(OCC(=O)N2CCCCC2)cc1", "Potency": "inconclusive: 6.51 µM [cytotoxic, partial curve]"}, {"compound": "C=CC[C@@H](CC(=O)N(CCO)Cc1ccccc1)C(=O)NC[C@@H](OC(=O)[C@@H](CC=C)CC(=O)OC(C)(C)C)c1ccccc1", "activity change, negative = cytotoxicity": "inactive: -11.2%"}, {"compound": "CC(CCN1C(N(C)C)=NC[C@@H]1C)c1ccccc1", "note": "(stereo partly drawn)", "Potency": "inconclusive: 0.0052 µM [rising, full curve, poor fit]"}, {"compound": "CCCSc1nnc2[nH]c(=O)cc(N)n12", "Potency": "inconclusive: 1.64 µM [cytotoxic, full curve]"}, {"compound": "CCCn1ncc(C(=O)N(C)C2CCCN(Cc3ccccc3F)C2)c1C", "note": "(stereo not drawn)", "Potency": "inconclusive: 0.0058 µM [rising, full curve, poor fit]"}, {"compound": "Cc1[nH]c2ccccc2c1C(=O)CSC(=S)N1CCCCC1", "Potency": "active: 13 µM"}, {"compound": "COc1ccc(-n2c(=O)c3sc4ccccc4c3n(CC(=O)N3CCCC3)c2=O)cc1", "activity change, negative = cytotoxicity": "inactive: 5.33%"}, {"compound": "Cc1c(Br)c([N+](=O)[O-])nn1CC(=O)Nc1sc2c(c1C(=O)OC(C)C)CCCC2", "Potency": "inconclusive: 2.06 µM [cytotoxic, full curve]"}, {"compound": "O=C(NCC(c1ccco1)N1CCc2ccccc2C1)C(=O)Nc1ccccc1F", "note": "(stereo not drawn)", "Potency": "inconclusive: 7.31 µM [cytotoxic, partial curve]"}, {"compound": "O=C(NCc1ccccc1C(F)(F)F)C12CN(Cc3ccccc3)CC1C(c1ccc([N+](=O)[O-])cc1)=NO2", "note": "(stereo not drawn)", "Potency": "inconclusive: 10.3 µM [rising, single point]"}]}]}
